# Reference: PubChem BioAssay AID493014 (National Center for Advancing Translational Sciences (NCATS), 2011)
# About 170 (0.05%) of roughly 340,000 compounds were called active. The shares of active, inactive and inconclusive entries below differ from those in the screen. Calls follow the shape of the dose curve; as a rule, active = well fitted inhibition curve with a large enough effect in the signal ratio, with a control signal flat (not every such curve was filed as active); inconclusive = small, poorly fitted or top-dose-only effect, or effect the other way, or a change in a side signal; inactive = flat fitted curve, though single readings scatter; the % refers to the signal ratio. Potencies beside an inconclusive call are fits to weak or partial responses and may not hold up.
# Assay: qHTS Assay to Find Inhibitors of Chronic Active B-Cell Receptor Signaling;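 as to activity change, negative = inhibition: plate controls were basal doxycycline-induced cells for no effect and cells given 10 µM MG132 for full effect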
# Details: ABC-DLBCL IkBa-CBG/CBR reporter, luminescence ratio (green luciferase fused to IkBa over red control in TMD8 lymphoma cells), 4 h; activity change, negative = inhibition: at 46.1 µM (top of the series) unless noted
# In short: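 TMD8 ABC-DLBCL cells carrying doxycycline-inducible green luciferase fused to IkappaBalpha plus unfused red luciferase were exposed to compounds (up to 46 uM) for 4 hrs at 37C. Activity came from the overlap-corrected green/red luminescence ratio.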
# Potency is read from the fitted curve at half-maximal effect.
SMILES,Potency,"activity change, negative = inhibition"
COc1ccccc1NC(=O)Cn1nc(-c2ccc(Cl)cc2)c2ccccc2c1=O,"inconclusive: 14.6 µM [falling, partial curve, poor fit]",
COc1cccc(-c2cc(C(=O)Nc3cc(C)n(Cc4ccc(Cl)cc4)n3)no2)c1,"inconclusive: 5.8 µM [falling, partial curve, poor fit]",
Nc1ncnc2c1ncn2[C@H]1CC[C@@H](CO)O1,,inconclusive: 0.641%
Cn1cc(Br)c(C(=O)N/N=C/c2cc3c(cc2Cl)OCO3)n1,"inconclusive: 3.16 µM [falling, full curve]",
COC(=O)c1ccc(Cn2cc([N+](=O)[O-])cn2)cc1,,inactive
CCOc1ccc(CN2C(=O)c3ccccc3C2=O)cc1C(=O)Nc1nnc(SCC)s1,,inconclusive: -0.334%
C=CCOC(=O)c1sc(NC(=O)c2ccco2)nc1C,,inconclusive: -14.9%
COc1cccc(-c2csc(N3CCN(CC(=O)NNC(=O)c4ccc(Cl)cc4)CC3)n2)c1,,inconclusive: -4.29%
CCOC(=O)c1ccccc1NC1c2ccccc2C(=O)N1c1cc(C)ccn1 (centres undefined),,inactive
COc1ccc(-c2noc(Cc3ccccc3OC)n2)cc1,,inconclusive: -19.9%
CC(C)(C)N1C(=O)c2ccc(C(=O)Nc3ccc(O)cc3)cc2C1=O,"inconclusive: 20 µM [falling, single point]",
O=C(NC1(C(F)(F)F)OCCO1)c1ccc(F)cc1,,inactive
c1cnc(N2CCN(c3ccc4ccccc4n3)CC2)nc1,,inconclusive: -24.6%
O=C(Nc1cccc(Cl)c1)c1ccc(=O)[nH]n1,"inconclusive: 17.8 µM [falling, single point]",
N#CC(c1ccccc1)c1ccc2c(C(F)(F)F)cc(C(F)(F)F)nc2n1 (centres undefined),,inactive
COc1ccccc1NS(=O)(=O)c1cccc(-n2c(O)c(C=Nc3ccccc3C(=O)O)c3ccccc3c2=O)c1,"inconclusive: 22.4 µM [falling, single point]",
O=C(NCCc1ccccn1)c1cccc(S(=O)(=O)N2CCc3ccccc32)c1,,inconclusive: 0.73%
COC(=O)c1ccccc1NC(=O)CSc1nc(C)c(Cl)c(C)c1C#N,"inconclusive: 35.5 µM [falling, single point]",
NS(=O)(=O)c1ccc(CCNC(=O)CNCCc2ccccc2)cc1,,inconclusive: 1.38%
COC(=O)C(=Cc1ccccc1[N+](=O)[O-])C(=O)OC,"inconclusive: 22.4 µM [falling, partial curve, poor fit]",
Cc1c(Cl)cccc1N/C(SCC(=O)N1CCCCCC1)=C(/C#N)c1nc2ccccc2s1,"inconclusive: 6.51 µM [falling, partial curve, poor fit]",
Cc1csc2nc(CNS(=O)(=O)c3ccc4c(c3)CCCC4)cn12,,inactive
NS(=O)(=O)c1ccc(CNC(=O)/C=C/c2ccc(Cl)c(Cl)c2)cc1,"inconclusive: 14.6 µM [falling, single point]",
CCCCOc1ccc(-c2cc(C(F)(F)F)c(C#N)c(SCC(=O)O)n2)cc1,,inactive
Clc1cccc(-c2cc3nc4c(c(N5CCNCC5)n3n2)CCCC4)c1,"inconclusive: 29.1 µM [falling, single point]",

# Pulled one by one from above, three records:
SMILES,Potency,"activity change, negative = inhibition"
CC(C)(C)N1C(=O)c2ccc(C(=O)Nc3ccc(O)cc3)cc2C1=O,"inconclusive: 20 µM [falling, single point]",
NS(=O)(=O)c1ccc(CCNC(=O)CNCCc2ccccc2)cc1,,inconclusive: 1.38%
CCCCOc1ccc(-c2cc(C(F)(F)F)c(C#N)c(SCC(=O)O)n2)cc1,,inactive

# (next part)

SMILES,Potency,"activity change, negative = inhibition"
CC(=O)Nc1cc2nn(-c3ccccc3)nc2cc1C,,inconclusive: 3.41%
COc1ccc(OCCNc2cc(N3CCOCC3)ccc2[N+](=O)[O-])cc1,,inconclusive: -19%
Cc1c(NC(=O)c2cc3c(s2)CCCC3)c(=O)n(-c2ccccc2)n1C,,inconclusive: -1.42%
CC1CCN(C(=O)Cn2cc(SCC(=O)NCC3CCCO3)c3ccccc32)CC1 (centres undefined),"inconclusive: 11.2 µM [falling, partial curve, poor fit]",
CC1CCN(C(=O)COC(=O)c2cccs2)CC1,"inconclusive: 18.4 µM [falling, single point]",
COc1cc(N2CCCC2)c(OC)cc1/C=C(/C#N)c1ccc(F)cc1,,inconclusive: 14.8%
CCOC(=O)C1CCCN(Cc2ccc(OCc3ccccc3)c(OC)c2)C1 (centres undefined),,inactive
Cc1ccc(OCc2nc(-c3ccccn3)no2)cc1,"inconclusive: 4.11 µM [falling, single point]",
O=C(c1ccncc1)N1CCN(C(=O)c2cccc3ccccc23)CC1,,inconclusive: 5.39%
Oc1ccc(Cl)cc1CNc1ccccn1,,inconclusive: -0.2%
O=C(Nc1ccc(Cl)c(S(=O)(=O)N2CCCCC2)c1)c1ccncc1,,inconclusive: -17.3%
CCNC(=O)O/N=C1\CCCCC1c1ccc([N+](=O)[O-])cc1[N+](=O)[O-] (centres undefined),,inactive
Cc1nn(C)cc1C(=O)Nc1ccc2c(c1)OCCO2,"inconclusive: 35.5 µM [falling, single point]",
CNC(=O)c1ccc2c(c1)N(Cc1ccccc1Cl)C(=O)c1ccccc1S2,,inconclusive: -14.7%
C=CC(C)N1C(=O)S/C(=C\c2ccc(N3CCOCC3)cc2C)C1=O (centres undefined),,inactive
COc1cccc(NC(=O)CNc2cc(S(=O)(=O)N3CCOCC3)ccc2N2CCCC2)c1,,inactive
O=C(COc1ccc(F)cc1)NCc1ccc2c(c1)CCN2C(=O)c1ccccc1,"inconclusive: 14.1 µM [falling, single point]",
Cc1c(C(=O)O/N=C(\N)c2ccccn2)cccc1[N+](=O)[O-],"inconclusive: 12.6 µM [falling, single point]",
CCOC(=O)c1cccc(NC(=O)COc2ccc([N+](=O)[O-])cc2)c1,,inconclusive: 4.62%
Cc1ccsc1C(=O)Nc1nc2ccccc2[nH]1,"inconclusive: 11.2 µM [falling, partial curve]",
Cc1ccc(Nc2ccc(C(=O)O)cc2N)cc1,"inconclusive: 14.1 µM [falling, single point]",
COCCNC(=O)c1c(N)n(/N=C/c2cccs2)c2nc3ccccc3nc12,"inconclusive: 6.51 µM [activator, partial curve]",
C=C(C)c1ccccc1,,inconclusive: 1.1%
CC(=O)Oc1c(C)cc(Cl)cc1C(=O)Nc1ccc([N+](=O)[O-])cc1Cl,"inconclusive: 1.84 µM [falling, full curve]",
